# Assay results published in PMC9519289.
# These are yes or no findings as the source states them, for the method shown. Binding seen in cells or lysates may run through a third protein. Some entries that bind do so weakly or less than the wild type.
# T1: Regulated in development and DNA damage response 1 (REDD1) (human (endogenous in HK-2)) (UniProt Q9NX09)
# T1 sequence: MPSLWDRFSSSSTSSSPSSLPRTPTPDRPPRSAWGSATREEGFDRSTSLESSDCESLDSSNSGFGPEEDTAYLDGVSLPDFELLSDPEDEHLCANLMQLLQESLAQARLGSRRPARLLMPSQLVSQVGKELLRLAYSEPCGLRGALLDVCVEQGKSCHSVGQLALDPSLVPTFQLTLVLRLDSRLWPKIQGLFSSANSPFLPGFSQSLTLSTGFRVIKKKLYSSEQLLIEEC
# B1: thioredoxin-interacting protein (TXNIP) (protein, UniProt Q9H3M7 1-391)
# chain: MVMFKKIKSFEVVFNDPEKVYGSGEKVAGRVIVEVCEVTRVKAVRILACGVAKVLWMQGSQQCKQTSEYLRYEDTLLLEDQPTGENEMVIMRPGNKYEYKFGFELPQGPLGTSFKGKYGCVDYWVKAFLDRPSQPTQETKKNFEVVDLVDVNTPDLMAPVSAKKEKKVSCMFIPDGRVSVSARIDRKGFCEGDEISIHADFENTCSRIVVPKAAIVARHTYLANGQTKVLTQKLSSVRGNHIISGTCASWRGKSLRVQKIRPSILGCNILRVEYSLLIYVSVPGSKKVILDLPLVIGSRSGLSSRTSSMASRTSSEMSWVDLNIPDTPEAPPCYMDVIPEDHRLESPTTPLLDDMDGSQDSPIFMYAPEFKFMPPPTYTEVDPCILNNNVQ
# Biological target: T1, Regulated in development and DNA damage response 1 (REDD1) (human (endogenous in HK-2))
# Experiment: co-IP; endogenous proteins; lysate supernatant with primary antibody at 4°C overnight, protein A/G sepharose 3 h, three washes, western blot; cells under normal glucose (5.6 mM) or high glucose (30 mM)
binder,measurement,value
B1,binding,binds
